The text below walks through data of patent US8835377B2, “Oral delivery of peptide pharmaceutical compositions” (UGP Therapeutics, Inc., priority 2004, dated 2014).

Further values from the same series stand in other lists.

The data set is described as follows: Pharmacokinetics after oral capsules (sCT plus Dmt-DALDA with citric acid and lauroyl carnitine), non-enteric coated or enteric coated, in fasted beagle dogs (plasma; ELISA for sCT, HPLC-MS for Dmt-DALDA). The data set is classed as in vivo. The method, then: A second series of tests was carried out, as noted above, using beagle dogs. […] In the experiments represented in FIGS. 2A and 2B, size 00 […] capsules were each filled with 758 mg of a powdered blend consisting of citric acid (643 mg), lauroyl carnitine (66 mg), talc (33 mg), salmon calcitonin (sCT) (13 mg) and Dmt-DALDA (2.4 mg). Half of the capsules were coated with an enteric coating solution of L30D-55, while the remaining 50% of the capsules were not coated. Four fasted dogs were each given 1 uncoated capsule, and 2 weeks later they were each given an enteric coated capsule. After administration of each capsule, samples of blood were taken at 15 minute intervals from an indwelling catheter for up to 4 hours. The blood samples were centrifuged and the resulting plasma supernatants were stored frozen at −20° C. The plasma samples were subsequently analyzed for sCT by a direct ELISA, and for Dmt-DALDA by HPLC-mass spectrometry performed as set forth in Wan, H. and Desiderio, D., Quantitation of [DMT^1] DALDA in ovine plasma by on-line liquid chromatography/quadrapole time-of-flight mass spectrometry, Rapid Communications in Mass Spectrometry, 2003; 17, 538-546, the contents of which are incorporated herein by reference.
The results summarized in FIGS. 2A and 2B as plasma peptide concentration normalized to a 1 mg dose as a function of time relative to the average Tmax, (i.e., the time at which the maximum amount of peptide was detected) indicate that both peptides, i.e., sCT and Dmt-DALDA, were detected in dogs given uncoated or enteric coated capsules. […] Table DI (below) sets forth the values upon which the curves in FIGS. 2A and 2B are based. The results are summarized in the tables as plasma peptide concentration normalized to a 1 mg dose as a function of time. Table III, moreover, provides the standard deviations for the data obtained regarding each of the test dogs, which standard deviations are also indicated in FIGS. 2A and 2B.
Table IV (below) summarizes the pharmacokinetic parameters in dogs of orally administered sCT and Dmt-DALDA when administered in non-enteric coated versus enteric coated capsules. Peptide was not detected from 1 dog in each group due to (a) Dog 3 vomiting the uncoated capsule and (b) delayed gastric emptying in Dog 2 provided with an enteric coated capsule. Cmax and AUC are as defined with regard to Table H above.

Setting [1] is: enteric coated capsule, Dog 1, 225 min.
Setting [2] is: enteric coated capsule, Dog 1, 240 min.
The mark [3] stands for this setting: enteric coated capsule, Dog 2 (delayed gastric emptying), 225 min.
Setting [4] is: enteric coated capsule, Dog 2 (delayed gastric emptying), 240 min.
The mark [5] stands for this setting: enteric coated capsule, Dog 3, 210 min.
Where [6] appears, read: enteric coated capsule, Dog 3, 225 min.
The mark [7] stands for this setting: enteric coated capsule, Dog 3, 240 min.
[8] abbreviates: enteric coated capsule, Dog 4, 210 min.
Where [9] appears, read: enteric coated capsule, Dog 4, 225 min.
Setting [10] is: enteric coated capsule, Dog 4, 240 min.
Where [11] appears, read: non-enteric coated capsule, Dog 1, 0 min.
Setting [12] is: non-enteric coated capsule, Dog 1, 15 min.
[13] abbreviates: non-enteric coated capsule, Dog 1, 30 min.
Where [14] appears, read: non-enteric coated capsule, Dog 2, 0 min.
Setting [15] is: non-enteric coated capsule, Dog 2, 15 min.
Where [16] appears, read: non-enteric coated capsule, Dog 2, 30 min.
Where [17] appears, read: non-enteric coated capsule, Dog 3 (vomited capsule), 0 min.
Where [18] appears, read: non-enteric coated capsule, Dog 3 (vomited capsule), 15 min.
Setting [19] is: non-enteric coated capsule, Dog 3 (vomited capsule), 30 min.
Where [20] appears, read: non-enteric coated capsule, Dog 4, 0 min.
The mark [21] stands for this setting: non-enteric coated capsule, Dog 4, 15 min.
Where [22] appears, read: non-enteric coated capsule, Dog 4, 30 min.

With `Cc1cc(O)cc(C)c1C[C@H](N)C(=O)N[C@H](CCCNC(=N)N)C(=O)N[C@@H](Cc1ccccc1)C(=O)N[C@@H](CCCCN)C(N)=O` [Dmt-DALDA, H-2,6-dimethyltyrosine-D-Arginine-Phenylalanine-Lysine-NH2], the “plasma peptide concentration normalized to a 1 mg dose” value is 2896 pg/mL under setting [1]; 2527 pg/mL under setting [2]; 0 pg/mL under setting [3]; 0 pg/mL under setting [4]; 4772 pg/mL under setting [5]; 4884 pg/mL under setting [6]. Further, the “plasma peptide concentration normalized to a 1 mg dose” value runs as follows: under setting [7], 3651 pg/mL; under setting [8], 2664 pg/mL; under setting [9], 2490 pg/mL; under setting [10], 1851 pg/mL; under setting [11], 0 pg/mL; under setting [12], 0 pg/mL. Besides, the “plasma peptide concentration normalized to a 1 mg dose” value came to 4108 pg/mL under setting [13]; 0 pg/mL under setting [14]; 0 pg/mL under setting [15]; 6473 pg/mL under setting [16]; 0 pg/mL under setting [17]; 0 pg/mL under setting [18]. The “plasma peptide concentration normalized to a 1 mg dose” value by setting is: under setting [19], 0 pg/mL; under setting [20], 0 pg/mL; under setting [21], 0 pg/mL; under setting [22], 5456 pg/mL.
Turning to `CC(C)C[C@H](NC(=O)[C@H](CCCCN)NC(=O)CNC(=O)[C@H](CC(C)C)NC(=O)[C@@H](NC(=O)[C@@H]1CSSC[C@H](N)C(=O)N[C@@H](CO)C(=O)N[C@@H](CC(N)=O)C(=O)N[C@@H](CC(C)C)C(=O)N[C@@H](CO)C(=O)N[C@@H]([C@@H](C)O)C(=O)N1)C(C)C)C(=O)N[C@@H](CO)C(=O)N[C@@H](CCC(N)=O)C(=O)N[C@@H](CCC(=O)O)C(=O)N[C@@H](CC(C)C)C(=O)N[C@@H](Cc1c[nH]cn1)C(=O)N[C@@H](CCCCN)C(=O)N[C@@H](CC(C)C)C(=O)N[C@@H](CCC(N)=O)C(=O)N[C@H](C(=O)N[C@@H](Cc1ccc(O)cc1)C(=O)N1CCC[C@H]1C(=O)N[C@@H](CCCNC(=N)N)C(=O)N[C@H](C(=O)N[C@@H](CC(N)=O)C(=O)N[C@H](C(=O)NCC(=O)N[C@@H](CO)C(=O)NCC(=O)N[C@H](C(=O)N1CCC[C@H]1C(N)=O)[C@@H](C)O)[C@@H](C)O)[C@@H](C)O)[C@@H](C)O` [sCT, salmon calcitonin], the “plasma peptide concentration normalized to a 1 mg dose” value runs as follows: under setting [1], 331 pg/mL; under setting [2], 179 pg/mL; under setting [3], 0 pg/mL; under setting [4], 0 pg/mL; under setting [5], 1194 pg/mL; under setting [6], 734 pg/mL. For the same compound, the “plasma peptide concentration normalized to a 1 mg dose” value reads like this: under setting [7], 626 pg/mL; under setting [8], 867 pg/mL; under setting [9], 686 pg/mL; under setting [10], 515 pg/mL; under setting [11], 0 pg/mL; under setting [12], 0 pg/mL. The “plasma peptide concentration normalized to a 1 mg dose” value by setting is: under setting [13], 2648 pg/mL; under setting [14], 0 pg/mL; under setting [15], 0 pg/mL; under setting [16], 3148 pg/mL; under setting [17], 0 pg/mL; under setting [18], 0 pg/mL. The “plasma peptide concentration normalized to a 1 mg dose” value runs as follows: under setting [19], 0 pg/mL; under setting [20], 0 pg/mL; under setting [21], 0 pg/mL; under setting [22], 971 pg/mL.
